Measurements taken from PubChem BioAssay AID493199 (National Center for Advancing Translational Sciences (NCATS), 2011).
This list was built around the results that the source calls inconclusive (neither active nor inactive); the mix of calls is not that of the screen. Potencies of inconclusive entries are doubtful fits and often do not repeat. Active and inactive are the calls of the source. Calls follow the shape of the dose curve; as a rule, active = well fitted inhibition curve with a large enough effect; inconclusive = small, poorly fitted or top-dose-only effect, or effect the other way; inactive = no such curve, though single readings can be large or run the other way. Numbered stars: 1 amine (or outer) side, 2 acyl side, 3 side chain; on linkers, the order of the positions; unused ones are H or OH. Bridge positions count the residues as written; N and C are the ends. Square brackets hold non-standard residues; d marks the D form. Peptide text beside a SMILES is read from it. * marks the point of attachment. ξ: configuration not given here. ΔAla(Z-3-ureido) = NC(=O)N/C=C(\N)C(=O)O; X1 = NC1=NC(O)CC(C(N[*:1])C(=O)[*:2])N1; ξβ3hOrn = NCCCC(N)CC(=O)*; Dap = NC[CH](N)C(=O)O

By UniProt entry, the sequences of proteins in these tests, tags left out. Where a name states a change or a piece, a line headed by the entry shows the natural chain unless it says otherwise.
UniProt Q9NR56: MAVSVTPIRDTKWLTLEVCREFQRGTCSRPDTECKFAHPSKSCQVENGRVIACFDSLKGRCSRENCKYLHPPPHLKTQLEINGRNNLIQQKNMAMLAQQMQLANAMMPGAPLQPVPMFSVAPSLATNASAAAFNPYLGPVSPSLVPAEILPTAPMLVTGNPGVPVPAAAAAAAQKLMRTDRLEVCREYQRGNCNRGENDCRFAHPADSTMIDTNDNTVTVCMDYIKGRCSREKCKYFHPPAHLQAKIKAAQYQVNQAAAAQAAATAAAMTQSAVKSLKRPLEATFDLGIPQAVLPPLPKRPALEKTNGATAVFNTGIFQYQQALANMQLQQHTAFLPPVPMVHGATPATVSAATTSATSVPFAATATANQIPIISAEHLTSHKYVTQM

Biological target: Muscleblind-like protein 1 (Homo sapiens) (UniProt Q9NR56)
Experiment: qHTS Assay for Inhibitors of MBNL1-poly(CUG) RNA binding: Initial hit validation from the primary screen
Details: TR-FRET MBNL1-His / biotin-(CUG)12 binding, 60 min; series mostly up to 57.6 µM; activity change, negative = inhibition: at the top concentration
Method in brief: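 Compounds run up to 58 uM against the MBNL1-His/biotin-(CUG)12 complex. After 60 min at room temperature with Tb-anti-His (0.055 ng/ul) and SA-XL665 (5 nM), the 665/545 nm emission ratio (Ex 340 nm) is normalized to buffer and complex controls.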

Potency, inconclusive:
Nc1ccc2c(c1)C(=O)C(=O)c1ccccc1-2 25.9 µM [inhibitor, partial curve, poor fit], NCCCC(N)CC(=O)NC1CNC(=O)C(C2CC(O)N=C(N)N2)NC(=O)/C(=C/NC(N)=O)NC(=O)C(CO)NC(=O)C(CO)NC1=O (stereo not drawn) (ξβ3hOrn-[Dap]SS[ΔAla(Z-3-ureido)][X1]; lactam 1-C; configuration not given here) 32.6 µM [inhibitor, partial curve, poor fit], COc1ccc(C(c2c(C)[nH]n(-c3ccccc3)c2=O)c2c(C)[nH]n(-c3ccccc3)c2=O)cc1OC 103 µM [inhibitor, partial curve], Cc1ccc(/C=c2/sc3n(c2=O)CCCN=3)o1 20.6 µM [activator, partial curve]

Activity change, negative = inhibition, inactive:
Cn1c(=O)c2c(ncn2CCO)n(C)c1=O 1.16%, CCO/C=C1/C(=O)N(Cc2ccccc2)C(=O)c2ccccc21 -59.8%, COc1ccccc1NC(=O)Nc1ccnn1C1CCCCC1 -7.12%, CNC[C@H](O)c1ccc(O)c(O)c1 -13.7%, CC(Sc1ncc(C#N)c(N)n1)C(=O)Nc1ccccc1 (stereo not given) -0.753%, O=C1c2ccccc2C(=O)C12OC2c1cccc2ccccc12 (stereo not given) -22.4%
